# Data as given in PubChem BioAssay AID602196 (INSERM, 2012).
# Test: 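Modifiers of cisplatin sensitivity in A549 cells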
# System: human A549 lung cancer cells
# Knock-down reagent: siRNA pair against human genes
# Timing: 48 h transfection before cisplatin; time from cisplatin to read-out not stated
# Treatment: cisplatin at a dose killing half of control-siRNA cells; exact dose and duration not given
# Measurement: 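Cisplatin cell death as a shift from the 50% death seen with control siRNA; siRNAs toxic or growth-blocking alone scored 0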
# Scale: two-siRNA summed score (-2 to +2): higher = both siRNAs protect from cisplatin killing; -2 means both sensitise
# Call rule: 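Each siRNA scores 0 if harmful alone by LDH or WST-1, otherwise +1 if it reduces and -1 if it increases cisplatin killing; a gene is active when both siRNAs agree (sum +2 or -2)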
# Calls: active = both siRNAs shift cisplatin killing the same way; inactive = no consistent shift, or siRNA harmful alone
# In all, the deposit lists about 23,000 reagents; this is an unselected part. In the full data, 455 (2%) are marked active. 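Active includes both protection and sensitisation; some change values fall well beyond the stated -50 to +50 range.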 A number with no mark means an inactive call. Not all columns of the deposit are shown. Not given: the amount of reagent.
gene,two-siRNA summed score (-2 to +2)
NTS (neurotensin),0
LOC388817,0
PHC3 (polyhomeotic homolog 3),0
NABP1 (nucleic acid binding protein 1),0
PPP1R15B (protein phosphatase 1 regulatory subunit 15B),0
FBXO36 (F-box protein 36),0
DNAAF6 (dynein axonemal assembly factor 6),0
VWC2 (von Willebrand factor C domain containing 2),0
LOC440931,0
ESRP2 (epithelial splicing regulatory protein 2),-1
"FARS2 (phenylalanyl-tRNA synthetase 2, mitochondrial)",0
CDK9 (cyclin dependent kinase 9),1
LZIC (leucine zipper and CTNNBIP1 domain containing),0
DKFZP586K1520 (retired record),1
LOC283219,0
CXCL8 (C-X-C motif chemokine ligand 8),0
ANKRD30B (ankyrin repeat domain 30B),0
BAG1 (BAG cochaperone 1),-1
CEACAM6 (CEA cell adhesion molecule 6),1
CYP2C19 (cytochrome P450 family 2 subfamily C member 19),0
PPIL4 (peptidylprolyl isomerase like 4),0
ZNF813 (zinc finger protein 813),-1
LOC389958,2 (active)

Already shown: an excerpt of the list.
gene,two-siRNA summed score (-2 to +2)
"FARS2 (phenylalanyl-tRNA synthetase 2, mitochondrial)",0
CDK9 (cyclin dependent kinase 9),1
LZIC (leucine zipper and CTNNBIP1 domain containing),0
